From paper PMC4299599, “Quantification of cytosolic interactions identifies Ede1 oligomers as key organizers of endocytosis” (Molecular Systems Biology, 2014)
Results are given in words; binding and its absence hold for the method and conditions named.

Legend:
[1] = target: T1, Sla1 (S. cerevisiae), P32790; experiment: condition: detection range of FCCS: apparent KD up to ~1 μM; fluorescence cross-correlation spectroscopy (FCCS); self-interaction: living diploid yeast cells with one allele fused to (3)myeGFP and one to (3)mCherry, cytoplasm; apparent (effective) KD, to be taken as the upper limit since complexes of one colour are not seen; settings: remark: other sources report otherwise
T1 chain: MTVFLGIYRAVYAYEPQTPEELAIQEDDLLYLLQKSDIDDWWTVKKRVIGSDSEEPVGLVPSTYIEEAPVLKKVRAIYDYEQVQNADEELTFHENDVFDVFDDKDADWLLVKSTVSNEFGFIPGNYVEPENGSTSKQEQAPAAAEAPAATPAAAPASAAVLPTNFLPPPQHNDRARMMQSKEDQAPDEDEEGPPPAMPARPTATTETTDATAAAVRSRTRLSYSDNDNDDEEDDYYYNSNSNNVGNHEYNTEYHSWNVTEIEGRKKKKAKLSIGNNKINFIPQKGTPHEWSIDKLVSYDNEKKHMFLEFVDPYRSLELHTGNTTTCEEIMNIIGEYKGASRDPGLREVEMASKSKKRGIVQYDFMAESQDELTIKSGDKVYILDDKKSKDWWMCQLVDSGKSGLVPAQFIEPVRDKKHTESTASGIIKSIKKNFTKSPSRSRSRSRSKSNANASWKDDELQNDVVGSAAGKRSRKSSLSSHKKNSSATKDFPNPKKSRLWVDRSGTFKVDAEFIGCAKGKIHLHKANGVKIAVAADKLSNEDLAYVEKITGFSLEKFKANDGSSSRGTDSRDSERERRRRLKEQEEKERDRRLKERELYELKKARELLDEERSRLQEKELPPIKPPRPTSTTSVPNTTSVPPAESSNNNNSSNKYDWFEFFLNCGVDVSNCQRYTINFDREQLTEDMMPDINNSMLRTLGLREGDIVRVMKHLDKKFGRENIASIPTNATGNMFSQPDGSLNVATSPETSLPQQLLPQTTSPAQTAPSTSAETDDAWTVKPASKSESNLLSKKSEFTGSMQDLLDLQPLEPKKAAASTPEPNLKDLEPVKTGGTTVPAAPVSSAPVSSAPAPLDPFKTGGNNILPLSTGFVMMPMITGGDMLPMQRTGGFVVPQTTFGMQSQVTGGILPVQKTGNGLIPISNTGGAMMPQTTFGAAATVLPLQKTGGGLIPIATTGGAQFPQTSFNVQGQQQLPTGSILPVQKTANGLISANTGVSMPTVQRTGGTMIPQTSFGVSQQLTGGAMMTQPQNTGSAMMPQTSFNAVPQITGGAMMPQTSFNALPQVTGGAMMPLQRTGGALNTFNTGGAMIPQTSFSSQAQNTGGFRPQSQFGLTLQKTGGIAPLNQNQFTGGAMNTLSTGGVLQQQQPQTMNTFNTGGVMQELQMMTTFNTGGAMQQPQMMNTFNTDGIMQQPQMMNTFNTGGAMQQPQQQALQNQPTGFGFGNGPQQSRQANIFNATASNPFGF

[2] = target: T1, Sla1 (S. cerevisiae), P32790; experiment: condition: 1000 nM (only Kdeff-values < 1000 nM are shown); fluorescence cross-correlation spectroscopy (FCCS); in the cytoplasm of living yeast cells; first-named protein green (3myeGFP or 1myeGFP; eGFP for Don1), second red (3mCherry); self-interaction in diploid strains with one allele of each colour; apparent or effective KD (Kdeff) from single-cell measurements; only Kdeff values < 1000 nM are shown; values for …; settings: remark: other sources report otherwise

binding [1]: no binding | binding [2]: no binding
B1: Sla1, P32790 1-1244 (protein)
chain: T1 chain
